Measurements taken from PMC3767733.
These are yes or no findings as the source states them, for the method shown. In cells and extracts the contact can be indirect. Some binding calls cover weakened binding; strength is not graded here.

By UniProt entry, the sequences of proteins in these tests, tags left out. Residues count along the entry.
UniProt O08589, residues 21-92: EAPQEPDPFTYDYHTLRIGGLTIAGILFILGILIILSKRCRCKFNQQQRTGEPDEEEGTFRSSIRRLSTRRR

Biological target: T1, Kir2.1 (rat (endogenous in rat ventricular tissue)) (UniProt Q64273)
T1 sequence: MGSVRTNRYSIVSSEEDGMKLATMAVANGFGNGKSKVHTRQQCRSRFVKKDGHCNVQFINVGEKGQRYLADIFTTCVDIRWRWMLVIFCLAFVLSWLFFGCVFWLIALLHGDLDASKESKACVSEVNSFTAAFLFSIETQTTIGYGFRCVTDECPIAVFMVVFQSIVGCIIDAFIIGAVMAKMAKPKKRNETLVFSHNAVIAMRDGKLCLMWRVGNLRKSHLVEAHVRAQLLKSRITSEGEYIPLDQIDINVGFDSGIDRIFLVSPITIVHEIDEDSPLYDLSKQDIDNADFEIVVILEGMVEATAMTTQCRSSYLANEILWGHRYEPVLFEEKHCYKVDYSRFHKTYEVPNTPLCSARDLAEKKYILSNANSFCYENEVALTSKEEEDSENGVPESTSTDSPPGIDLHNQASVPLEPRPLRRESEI
Assay: co-IP; pre-cleared whole cell lysates incubated with goat anti-Kir2.1 antibody on Protein A/G dynabeads overnight at 4°C; washed with 1% TBST; non-reducing, non-denaturing elution; blot with rabbit anti-PLM antibody

With “phospholemman (from UniProt O08589 21-92)” the binding was “binds”.
